Results deposited as PubChem BioAssay AID1671195 (Yale University, 2021).
Shown is a random part of about 22,000 reagents. About 1,510 of them (6.9%) count as active. 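Active includes knockdowns raising or lowering LDL uptake; positive z-scores mean more uptake, negative mean less.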

Purpose: 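Knockdowns that increase or decrease uptake of fluorescent LDL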 (primary screen)
Cells: human Huh7 hepatoma cells
Reagent: siRNA pool against human genes, 18 nM
Time to read-out: about 2 to 2.5 days of knockdown, then 8 h LDL uptake
Conditions: DiI-labelled LDL at 30 µg/ml for 8 h, in lipoprotein-deficient serum medium
Read-out: 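Fluorescent LDL signal imaged in cells, scaled to the plate median, robust z-score for each replicate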
Scale: robust z-score: higher = more LDL uptake after knockdown
Call rule: 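a gene counts as active if at least two replicate z-scores exceed ±2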

What did the screen give for CLDN16?
robust z-score, replicate 1: -0.131; robust z-score, replicate 2: -0.351; robust z-score, replicate 3: 0.192; Call: inactive

How did the screen score NPNT?
robust z-score, replicate 1: 0.196; robust z-score, replicate 2: 0.238; robust z-score, replicate 3: 0.0548; Call: inactive

With LOC440783 (retired record), how do the results read?
robust z-score, replicate 1: 0.804; robust z-score, replicate 2: 0.505; robust z-score, replicate 3: 0.523; Call: inactive

With DUSP15, how do the results read?
robust z-score, replicate 1: -0.553; robust z-score, replicate 2: 0.11; robust z-score, replicate 3: -0.643; Call: inactive

With MANEAL, what was measured?
robust z-score, replicate 1: -0.0893; robust z-score, replicate 2: 0.823; robust z-score, replicate 3: 0.41; Call: inactive

How did the screen score SLC18A3?
robust z-score, replicate 1: 0.893; robust z-score, replicate 2: 1.01; robust z-score, replicate 3: 1.47; Call: inactive

With PRPF8, what does the deposit list?
robust z-score, replicate 1: -0.753; robust z-score, replicate 2: -0.943; robust z-score, replicate 3: -0.923; Call: inactive

Which result is listed for USP29?
robust z-score, replicate 1: -0.834; robust z-score, replicate 2: -0.526; robust z-score, replicate 3: -0.535; Call: inactive

How did the screen score ENC1?
robust z-score, replicate 1: -0.817; robust z-score, replicate 2: 0.151; robust z-score, replicate 3: -0.949; Call: inactive

What is on record for SDHD?
robust z-score, replicate 1: -0.178; robust z-score, replicate 2: 0.0382; robust z-score, replicate 3: 0.437; Call: inactive

For CHRNB2, how do the results read?
robust z-score, replicate 1: 0.929; robust z-score, replicate 2: 0.514; robust z-score, replicate 3: 0.437; Call: inactive

For C8A, what was measured?
robust z-score, replicate 1: 0.489; robust z-score, replicate 2: 0.0481; robust z-score, replicate 3: 1.35; Call: inactive

What did the screen give for DDX10?
robust z-score, replicate 1: 0.533; robust z-score, replicate 2: -0.329; robust z-score, replicate 3: 0.207; Call: inactive

How did the screen score NKX1-2?
robust z-score, replicate 1: -0.453; robust z-score, replicate 2: -0.393; robust z-score, replicate 3: -0.317; Call: inactive

For RNF123, how do the results read?
robust z-score, replicate 1: -0.0325; robust z-score, replicate 2: 0.099; robust z-score, replicate 3: -0.541; Call: inactive

With DRAP1, what was measured?
robust z-score, replicate 1: -0.333; robust z-score, replicate 2: -0.554; robust z-score, replicate 3: -0.695; Call: inactive

For BFAR, what was measured?
robust z-score, replicate 1: 0.707; robust z-score, replicate 2: 0.703; robust z-score, replicate 3: 0.143; Call: inactive

For EIF3LP3, how do the results read?
robust z-score, replicate 1: 2.12; robust z-score, replicate 2: 1.56; robust z-score, replicate 3: 1.78; Call: inactive

With BEND5, what was measured?
robust z-score, replicate 1: 0.814; robust z-score, replicate 2: 1.27; robust z-score, replicate 3: 0.745; Call: inactive

What did the screen give for AKAP8L?
robust z-score, replicate 1: -1.64; robust z-score, replicate 2: -1.62; robust z-score, replicate 3: -1.86; Call: inactive

Which result is listed for LOC401922 (retired record)?
robust z-score, replicate 1: 0.39; robust z-score, replicate 2: -2.65; robust z-score, replicate 3: 0.229; Call: inactive

What is on record for OC90?
robust z-score, replicate 1: 2.66; robust z-score, replicate 2: 0.887; robust z-score, replicate 3: 1.65; Call: inactive

For SMYD5, what was measured?
robust z-score, replicate 1: 0.499; robust z-score, replicate 2: 0.606; robust z-score, replicate 3: 0.846; Call: inactive

Which result is listed for SLC17A1?
robust z-score, replicate 1: -1.62; robust z-score, replicate 2: -1.15; robust z-score, replicate 3: -1.36; Call: inactive

What is on record for PTPRK?
robust z-score, replicate 1: -0.761; robust z-score, replicate 2: -0.781; robust z-score, replicate 3: -0.654; Call: inactive

Which result is listed for PRPF38B?
robust z-score, replicate 1: -0.669; robust z-score, replicate 2: 0.513; robust z-score, replicate 3: -0.384; Call: inactive

With LOC442278 (retired record), how do the results read?
robust z-score, replicate 1: 0.604; robust z-score, replicate 2: 0.164; robust z-score, replicate 3: -0.245; Call: inactive

For AP1S2, what was measured?
robust z-score, replicate 1: -0.94; robust z-score, replicate 2: -1.42; robust z-score, replicate 3: -1.2; Call: inactive

With AP4M1, what does the deposit list?
robust z-score, replicate 1: -0.706; robust z-score, replicate 2: -1.39; robust z-score, replicate 3: -0.921; Call: inactive

Which result is listed for MYBPC1?
robust z-score, replicate 1: 1.56; robust z-score, replicate 2: 1.55; robust z-score, replicate 3: 2.51; Call: inactive

4 entries from above, arranged by “robust z-score, replicate 2”, descending.
EIF3LP3 → robust z-score, replicate 1 = 2.12; robust z-score, replicate 2 = 1.56; robust z-score, replicate 3 = 1.78; Call = inactive
BFAR → robust z-score, replicate 1 = 0.707; robust z-score, replicate 2 = 0.703; robust z-score, replicate 3 = 0.143; Call = inactive
RNF123 → robust z-score, replicate 1 = -0.0325; robust z-score, replicate 2 = 0.099; robust z-score, replicate 3 = -0.541; Call = inactive
DRAP1 → robust z-score, replicate 1 = -0.333; robust z-score, replicate 2 = -0.554; robust z-score, replicate 3 = -0.695; Call = inactive
